The other results are listed elsewhere or left out.
Experiments:
Assay in all cases: log2 fold change, soluble protein after heating vs DMSO (PISA); higher = thermal stabilisation; K562 cells, 10 uM, 30 min; active = over 0.2 and 3.5 SD of the protein, either way, in both replicates (recomputed)
[1] = compound: CC1=C(C=C(C=C1)NC(=O)C2=CC(=CC=C2)C(C)(C)C#N)NC3=CC4=C(C=C3)N=CN(C4=O)C
How it was run: (§1)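 K562 cells at 2×10^6 cells/mL were treated for 30 min with 10 μM compound, and aliquots were heated for 3 min over 48°C-58°C before pooling. Extraction used PBS with 0.5% NP-40 at 4°C, and soluble protein was the supernatant after 21,000xg for 90 min, measured by TMTpro 16plex LC-MS/MS with channel sums equalised. Thermal stability values, relative to control samples and from duplicates, are log2 fold changes.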

By UniProt entry, the sequences of proteins in these tests, tags left out. Where a name states a change or a piece, a line headed by the entry shows the natural chain unless it says otherwise.
UniProt Q96S16: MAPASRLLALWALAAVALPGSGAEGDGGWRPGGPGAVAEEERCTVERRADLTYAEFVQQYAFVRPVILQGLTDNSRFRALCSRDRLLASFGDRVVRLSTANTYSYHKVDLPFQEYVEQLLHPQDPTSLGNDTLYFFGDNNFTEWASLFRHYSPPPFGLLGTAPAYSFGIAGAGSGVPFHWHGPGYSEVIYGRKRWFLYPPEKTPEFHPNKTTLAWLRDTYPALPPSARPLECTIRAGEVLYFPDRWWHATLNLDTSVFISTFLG
UniProt O00522: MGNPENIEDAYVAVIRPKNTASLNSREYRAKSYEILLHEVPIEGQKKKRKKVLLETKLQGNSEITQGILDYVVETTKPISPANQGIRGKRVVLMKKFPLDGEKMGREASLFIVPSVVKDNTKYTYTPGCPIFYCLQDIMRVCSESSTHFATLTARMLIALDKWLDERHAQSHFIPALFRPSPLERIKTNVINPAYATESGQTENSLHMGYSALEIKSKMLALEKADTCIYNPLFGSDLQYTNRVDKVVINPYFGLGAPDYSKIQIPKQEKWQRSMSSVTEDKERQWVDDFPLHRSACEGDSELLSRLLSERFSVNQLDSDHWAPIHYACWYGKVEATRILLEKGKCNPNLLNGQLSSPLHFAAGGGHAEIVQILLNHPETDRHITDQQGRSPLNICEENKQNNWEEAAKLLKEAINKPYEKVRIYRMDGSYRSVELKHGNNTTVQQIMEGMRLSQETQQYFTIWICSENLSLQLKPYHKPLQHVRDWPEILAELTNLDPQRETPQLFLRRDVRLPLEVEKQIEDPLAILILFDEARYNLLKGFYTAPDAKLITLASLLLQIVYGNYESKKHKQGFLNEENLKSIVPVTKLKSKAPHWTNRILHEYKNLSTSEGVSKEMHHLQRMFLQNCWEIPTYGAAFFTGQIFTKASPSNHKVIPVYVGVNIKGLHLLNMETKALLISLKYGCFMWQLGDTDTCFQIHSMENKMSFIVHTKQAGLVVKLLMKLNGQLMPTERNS
UniProt Q7Z4S6: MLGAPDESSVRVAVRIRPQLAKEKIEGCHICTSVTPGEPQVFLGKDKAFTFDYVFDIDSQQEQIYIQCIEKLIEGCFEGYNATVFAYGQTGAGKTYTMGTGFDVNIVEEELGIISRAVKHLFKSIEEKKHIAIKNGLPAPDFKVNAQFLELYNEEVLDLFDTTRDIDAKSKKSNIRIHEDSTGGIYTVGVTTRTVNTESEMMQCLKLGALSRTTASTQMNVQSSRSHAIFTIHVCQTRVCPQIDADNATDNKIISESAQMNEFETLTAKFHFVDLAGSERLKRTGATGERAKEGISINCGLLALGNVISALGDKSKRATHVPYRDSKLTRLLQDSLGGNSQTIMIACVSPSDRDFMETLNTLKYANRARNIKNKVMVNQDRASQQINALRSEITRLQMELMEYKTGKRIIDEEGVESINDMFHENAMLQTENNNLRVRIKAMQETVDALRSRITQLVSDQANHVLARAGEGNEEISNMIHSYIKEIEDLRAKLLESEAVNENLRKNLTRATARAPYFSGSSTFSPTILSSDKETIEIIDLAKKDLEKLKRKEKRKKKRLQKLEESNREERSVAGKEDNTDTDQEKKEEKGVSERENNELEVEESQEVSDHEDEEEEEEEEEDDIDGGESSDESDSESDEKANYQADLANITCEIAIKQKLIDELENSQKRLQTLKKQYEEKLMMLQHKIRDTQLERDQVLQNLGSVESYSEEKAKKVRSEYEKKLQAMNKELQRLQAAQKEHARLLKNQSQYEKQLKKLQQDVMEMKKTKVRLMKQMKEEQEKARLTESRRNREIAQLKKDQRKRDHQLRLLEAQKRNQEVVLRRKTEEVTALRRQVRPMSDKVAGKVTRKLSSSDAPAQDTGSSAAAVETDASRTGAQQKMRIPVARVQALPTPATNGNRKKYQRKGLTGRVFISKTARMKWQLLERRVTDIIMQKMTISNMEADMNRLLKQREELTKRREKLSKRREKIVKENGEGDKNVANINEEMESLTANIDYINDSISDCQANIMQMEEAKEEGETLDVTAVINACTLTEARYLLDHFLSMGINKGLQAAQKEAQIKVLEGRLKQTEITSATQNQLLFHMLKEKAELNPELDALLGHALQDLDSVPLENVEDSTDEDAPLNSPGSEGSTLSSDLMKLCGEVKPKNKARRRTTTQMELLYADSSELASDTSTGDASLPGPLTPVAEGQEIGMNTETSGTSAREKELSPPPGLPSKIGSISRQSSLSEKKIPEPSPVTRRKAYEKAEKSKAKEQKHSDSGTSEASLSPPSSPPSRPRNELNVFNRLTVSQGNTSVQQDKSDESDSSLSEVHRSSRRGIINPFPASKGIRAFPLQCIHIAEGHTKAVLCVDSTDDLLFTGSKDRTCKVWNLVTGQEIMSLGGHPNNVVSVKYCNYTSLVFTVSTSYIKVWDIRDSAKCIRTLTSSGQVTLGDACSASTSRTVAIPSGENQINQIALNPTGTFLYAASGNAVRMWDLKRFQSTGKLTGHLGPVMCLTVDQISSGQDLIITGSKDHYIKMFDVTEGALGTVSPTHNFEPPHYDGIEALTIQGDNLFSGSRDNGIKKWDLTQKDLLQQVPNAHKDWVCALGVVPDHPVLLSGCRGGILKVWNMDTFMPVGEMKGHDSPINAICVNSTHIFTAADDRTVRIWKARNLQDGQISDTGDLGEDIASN
UniProt Q9H7Z6: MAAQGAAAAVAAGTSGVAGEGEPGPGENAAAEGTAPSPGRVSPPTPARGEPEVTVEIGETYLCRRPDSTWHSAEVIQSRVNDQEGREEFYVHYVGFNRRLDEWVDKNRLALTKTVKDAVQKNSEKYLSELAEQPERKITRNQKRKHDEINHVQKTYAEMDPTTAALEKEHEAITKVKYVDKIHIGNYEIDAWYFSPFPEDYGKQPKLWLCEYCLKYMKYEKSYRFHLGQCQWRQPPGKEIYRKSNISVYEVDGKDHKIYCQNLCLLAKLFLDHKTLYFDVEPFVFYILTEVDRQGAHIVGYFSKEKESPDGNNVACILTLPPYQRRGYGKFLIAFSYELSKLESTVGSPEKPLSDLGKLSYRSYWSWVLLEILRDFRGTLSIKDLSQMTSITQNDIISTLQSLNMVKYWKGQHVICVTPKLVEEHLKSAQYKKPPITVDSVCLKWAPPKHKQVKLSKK
UniProt Q8N6L1: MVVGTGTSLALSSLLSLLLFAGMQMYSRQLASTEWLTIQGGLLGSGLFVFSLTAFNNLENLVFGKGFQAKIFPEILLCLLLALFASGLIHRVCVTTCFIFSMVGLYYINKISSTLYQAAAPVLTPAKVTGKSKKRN
UniProt Q6P597: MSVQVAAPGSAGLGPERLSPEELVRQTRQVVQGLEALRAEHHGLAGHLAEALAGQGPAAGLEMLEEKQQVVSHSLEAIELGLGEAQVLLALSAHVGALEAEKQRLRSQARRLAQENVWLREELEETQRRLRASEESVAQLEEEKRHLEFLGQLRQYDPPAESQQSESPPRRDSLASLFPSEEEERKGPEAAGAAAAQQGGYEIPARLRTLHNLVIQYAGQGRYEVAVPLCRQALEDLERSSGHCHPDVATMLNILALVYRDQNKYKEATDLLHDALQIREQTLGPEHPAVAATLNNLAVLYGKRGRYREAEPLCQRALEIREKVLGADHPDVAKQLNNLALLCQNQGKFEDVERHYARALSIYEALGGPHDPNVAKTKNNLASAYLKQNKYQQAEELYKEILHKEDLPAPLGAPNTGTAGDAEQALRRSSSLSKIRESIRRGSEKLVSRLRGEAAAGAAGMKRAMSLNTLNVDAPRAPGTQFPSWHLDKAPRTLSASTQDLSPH
UniProt Q8IXQ5, whole entry, looked up: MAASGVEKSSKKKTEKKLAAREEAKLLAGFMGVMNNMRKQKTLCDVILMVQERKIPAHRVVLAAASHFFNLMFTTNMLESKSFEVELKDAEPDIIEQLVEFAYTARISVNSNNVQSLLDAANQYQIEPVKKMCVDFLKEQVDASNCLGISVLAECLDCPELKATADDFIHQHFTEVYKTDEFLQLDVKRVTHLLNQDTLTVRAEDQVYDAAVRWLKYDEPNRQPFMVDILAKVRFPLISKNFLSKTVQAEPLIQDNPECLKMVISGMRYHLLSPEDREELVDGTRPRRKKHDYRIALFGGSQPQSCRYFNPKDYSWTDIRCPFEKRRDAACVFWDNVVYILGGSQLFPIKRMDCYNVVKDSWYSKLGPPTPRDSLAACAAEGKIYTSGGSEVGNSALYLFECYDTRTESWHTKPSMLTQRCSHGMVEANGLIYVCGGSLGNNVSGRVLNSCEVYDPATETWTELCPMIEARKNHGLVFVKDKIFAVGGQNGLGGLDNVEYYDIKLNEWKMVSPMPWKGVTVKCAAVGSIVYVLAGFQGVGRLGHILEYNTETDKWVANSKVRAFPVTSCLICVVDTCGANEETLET
UniProt O60268: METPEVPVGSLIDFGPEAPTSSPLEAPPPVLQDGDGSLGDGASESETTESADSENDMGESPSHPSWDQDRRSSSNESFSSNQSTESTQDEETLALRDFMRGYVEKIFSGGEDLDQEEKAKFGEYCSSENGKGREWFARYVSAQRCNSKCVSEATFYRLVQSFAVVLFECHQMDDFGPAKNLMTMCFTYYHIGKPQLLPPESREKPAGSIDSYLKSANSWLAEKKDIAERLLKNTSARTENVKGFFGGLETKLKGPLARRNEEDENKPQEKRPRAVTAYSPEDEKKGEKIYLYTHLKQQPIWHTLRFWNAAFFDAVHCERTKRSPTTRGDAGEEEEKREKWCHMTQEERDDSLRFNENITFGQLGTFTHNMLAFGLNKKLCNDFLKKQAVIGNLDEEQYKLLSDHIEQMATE
UniProt Q9NQT8: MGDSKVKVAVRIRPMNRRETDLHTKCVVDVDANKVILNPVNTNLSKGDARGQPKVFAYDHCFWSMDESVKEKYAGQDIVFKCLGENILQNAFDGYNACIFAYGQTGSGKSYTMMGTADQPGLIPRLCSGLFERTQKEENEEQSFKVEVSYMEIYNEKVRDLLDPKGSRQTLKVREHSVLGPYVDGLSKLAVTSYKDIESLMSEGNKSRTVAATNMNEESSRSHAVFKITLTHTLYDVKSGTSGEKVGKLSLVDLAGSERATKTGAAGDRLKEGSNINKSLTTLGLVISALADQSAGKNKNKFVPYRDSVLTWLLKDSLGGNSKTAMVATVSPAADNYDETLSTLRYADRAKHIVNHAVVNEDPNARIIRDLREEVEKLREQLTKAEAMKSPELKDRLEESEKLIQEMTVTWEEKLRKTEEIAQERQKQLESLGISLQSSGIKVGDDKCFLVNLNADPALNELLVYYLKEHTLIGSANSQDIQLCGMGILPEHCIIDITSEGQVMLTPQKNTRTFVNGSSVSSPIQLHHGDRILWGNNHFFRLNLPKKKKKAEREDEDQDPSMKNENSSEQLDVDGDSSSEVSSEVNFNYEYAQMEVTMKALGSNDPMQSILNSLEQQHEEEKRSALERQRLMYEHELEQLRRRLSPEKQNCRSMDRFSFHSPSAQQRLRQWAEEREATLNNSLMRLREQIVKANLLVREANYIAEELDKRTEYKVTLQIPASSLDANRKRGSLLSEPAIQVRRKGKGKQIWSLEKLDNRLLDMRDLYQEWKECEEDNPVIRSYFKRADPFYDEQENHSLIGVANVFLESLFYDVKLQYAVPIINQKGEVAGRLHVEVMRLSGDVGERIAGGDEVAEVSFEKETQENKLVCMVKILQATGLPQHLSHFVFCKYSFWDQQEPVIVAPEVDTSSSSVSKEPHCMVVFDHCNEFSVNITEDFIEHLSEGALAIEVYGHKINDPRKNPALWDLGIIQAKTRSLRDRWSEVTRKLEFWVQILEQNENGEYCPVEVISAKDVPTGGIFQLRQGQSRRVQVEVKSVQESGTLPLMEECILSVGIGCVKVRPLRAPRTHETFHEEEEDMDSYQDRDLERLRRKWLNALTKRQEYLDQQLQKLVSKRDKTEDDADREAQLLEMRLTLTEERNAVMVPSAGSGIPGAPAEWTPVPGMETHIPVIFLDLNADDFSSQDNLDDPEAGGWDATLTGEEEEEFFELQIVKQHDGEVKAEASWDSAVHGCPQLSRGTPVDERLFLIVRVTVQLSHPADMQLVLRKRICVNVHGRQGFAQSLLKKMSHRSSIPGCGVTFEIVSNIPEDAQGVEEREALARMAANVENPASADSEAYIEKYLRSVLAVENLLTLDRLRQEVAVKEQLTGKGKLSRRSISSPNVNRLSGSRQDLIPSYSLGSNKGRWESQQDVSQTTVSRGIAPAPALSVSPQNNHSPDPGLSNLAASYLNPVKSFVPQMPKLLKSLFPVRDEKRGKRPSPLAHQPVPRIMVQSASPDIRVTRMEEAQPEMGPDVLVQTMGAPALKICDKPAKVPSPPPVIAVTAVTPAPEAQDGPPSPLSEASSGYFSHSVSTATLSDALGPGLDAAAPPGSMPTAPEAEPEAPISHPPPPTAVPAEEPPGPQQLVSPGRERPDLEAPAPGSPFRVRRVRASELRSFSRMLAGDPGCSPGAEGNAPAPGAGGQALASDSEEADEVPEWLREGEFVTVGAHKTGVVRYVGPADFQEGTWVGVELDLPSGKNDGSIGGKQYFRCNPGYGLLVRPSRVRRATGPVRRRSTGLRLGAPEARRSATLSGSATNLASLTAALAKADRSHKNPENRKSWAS

[2] = compound: CC1=C(C=C(C=C1)NC(=O)C2=CC(=CC=C2)N(C)C)NC(=O)C3=CC=C(C=C3)O
How it was run: as §1

[3] = compound: CC1=CC=C(C=C1)SC2=C3C=C(SC3=CN=C2)C(=O)N
How it was run: as §1

vemurafenib = compound: CCCS(=O)(=O)Nc1ccc(F)c(C(=O)c2c[nH]c3ncc(-c4ccc(Cl)cc4)cc23)c1F [vemurafenib]
How it was run: as §1

[4] = compound: CCCS(=O)(=O)Nc1ccc(F)c(C(=O)c2c[nH]c3ncc(Cl)cc23)c1F
How it was run: as §1

[5] = compound: CCCc1cc(C)[nH]c(=O)c1CNC(=O)c1cc(-c2ccnc(N3CCN(C)CC3)c2)cc2c1cnn2C(C)C
How it was run: as §1

[6] = compound: CC1=NC(=CC=C1)C2=C(N=C(N2)C(C)(C)C)C3=CC4=NC=CN=C4C=C3
How it was run: as §1

Nexturastat A = compound: CCCCN(Cc1ccc(C(=O)NO)cc1)C(=O)Nc1ccccc1 [Nexturastat A]
How it was run: as §1

givinostat = compound: CCN(CC)Cc1ccc2cc(COC(=O)Nc3ccc(C(=O)NO)cc3)ccc2c1 [givinostat]
How it was run: as §1

barasertib = compound: CCN(CCCOc1ccc2c(Nc3cc(CC(=O)Nc4cccc(F)c4)[nH]n3)ncnc2c1)CCOP(=O)(O)O [barasertib]
How it was run: as §1

Measured: log2 fold change

KATNBL1 (UniProt Q9H079)
inactive: [1] 0.013 | [2] 0.065 | [3] -0.082 | vemurafenib 0.137 | [4] -0.052 | [5] 0.133

KIF13A (UniProt Q9H1H9)
inactive: [1] -0.005 | [2] 0.021 | [3] -0.005 | [6] -0.004 | Nexturastat A 0.018 | vemurafenib -0.045 | [4] 0.04 | [5] -0.005 | givinostat -0.021 | barasertib -0.009

JAGN1 (UniProt Q8N5M9)
inactive: [1] 0.012 | [2] -0.025 | [3] 0.014 | [6] -0.061 | Nexturastat A -0.156 | vemurafenib 0.042 | [4] -0.042 | [5] -0.021 | givinostat -0.06 | barasertib -0.031

KAZN isoform 3 (UniProt Q674X7)
inactive: [1] 0.013 | [2] -0.016 | [3] 0.007 | [6] 0.029 | Nexturastat A 0.07 | vemurafenib -0.033 | [4] -0.042 | [5] -0.026 | givinostat -0.038 | barasertib -0.02

JMJD8 (UniProt Q96S16)
inactive: [1] 0 | [2] 0.006 | [3] -0.063 | [6] -0.067 | vemurafenib 0.117 | [4] -0.036 | [5] 0.025

KCNK1 (UniProt O00180)
inactive: [1] 0.02 | [2] 0.014 | [3] 0.099 | [6] 0.087 | Nexturastat A 0.01 | [4] -0.097 | givinostat -0.11 | barasertib -0.003

KRIT1 (UniProt O00522)
inactive: [1] 0.088 | [2] 0.08 | [3] 0.072 | Nexturastat A -0.088 | vemurafenib 0.027 | [4] 0.063 | givinostat -0.094 | barasertib 0.142

KIF21A isoform 4 (UniProt Q7Z4S6)
inactive: [1] 0.051 | [2] -0.067 | [3] -0.003 | [6] -0.043 | Nexturastat A 0.106 | vemurafenib -0.045 | [4] 0.014 | [5] -0.025 | givinostat 0.069 | barasertib 0.104

JUNB (UniProt P17275)
inactive: [1] -0.099 | [2] 0.015 | [6] -0.087 | Nexturastat A 0.184 | vemurafenib 0.129 | [5] 0.138 | givinostat 0.176 | barasertib 0.03

KNG1 (UniProt P01042)
inactive: [1] 0 | [2] 0.328 | [3] 0.019 | [6] 0.063 | vemurafenib 0.059 | [4] -0.071 | [5] -0.222 | givinostat -0.079 | barasertib 0.036

KAT8 isoform 2 (UniProt Q9H7Z6)
inactive: [1] 0.025 | [2] -0.028 | [3] 0.122 | vemurafenib -0.136 | [4] -0.018 | [5] -0.037 | givinostat -0.003 | barasertib -0.007

KIF14 (UniProt Q15058)
inactive: [1] -0.144 | [3] -0.134 | [6] -0.131 | Nexturastat A 0.347 | vemurafenib -0.112 | [4] 0.281 | [5] 0.16 | givinostat 0.365 | barasertib -0.016

KRTCAP2 isoform 2 (UniProt Q8N6L1)
inactive: [1] 0.017 | [2] 0.043 | [6] -0.005 | Nexturastat A 0.034 | vemurafenib -0.013 | [5] -0.238 | givinostat -0.01 | barasertib -0.094

KIF15 (UniProt Q9NS87)
inactive: [1] -0.055 | [2] 0.021 | [6] 0.003 | Nexturastat A 0.25 | vemurafenib -0.072 | [5] 0.072 | givinostat 0.08 | barasertib 0.04

KPTN (UniProt Q9Y664)
inactive: [2] -0.005 | [3] 0.131 | [6] 0.04 | Nexturastat A 0.011 | vemurafenib 0.123 | [4] 0 | [5] -0.003 | givinostat 0.037 | barasertib 0.103

KIAA1109 (UniProt Q2LD37)
inactive: [1] -0.069 | [6] -0.155 | givinostat -0.032

KIF1C (UniProt O43896)
inactive: [1] 0.256 | [6] 0.082 | barasertib -0.043

KIFC3 isoform 6 (UniProt Q9BVG8)
inactive: [1] -0.15 | [2] -0.023 | Nexturastat A -0.083 | vemurafenib 0.091 | [5] -0.271 | givinostat -0.048 | barasertib 0.032

KLC3 isoform 3 (UniProt Q6P597)
inactive: [1] 0.026 | [3] -0.215 | [4] 0.115

KIDINS220 isoform 2 (UniProt Q9ULH0)
inactive: [1] -0.342 | [6] -0.202 | Nexturastat A -0.017 | vemurafenib -0.449 | barasertib -0.075

Retrieved one by one from the entries so far, 2 records:
KIAA1109 (UniProt Q2LD37)
inactive: [1] -0.069 | [6] -0.155 | givinostat -0.032

KLC3 isoform 3 (UniProt Q6P597)
inactive: [1] 0.026 | [3] -0.215 | [4] 0.115

Remaining list, next part:

KLHL7 isoform 3 (UniProt Q8IXQ5)
inactive: [1] -0.062 | [3] -0.056 | [6] 0.311 | Nexturastat A -0.153 | [4] -0.179 | [5] 0.145 | barasertib 0.122

KLHL7 (UniProt Q8IXQ5)
inactive: [1] -0.114 | [3] 0.004 | Nexturastat A -0.08 | vemurafenib -0.511 | [4] -0.078 | givinostat -0.062 | barasertib -0.055

KDM2B (UniProt Q8NHM5)
inactive: [1] -0.064 | barasertib -0.098

KNL1 (UniProt Q8NG31)
inactive: [1] -0.088 | [2] 0.029 | [6] -0.066 | Nexturastat A -0.186 | [5] 0.105 | givinostat 0.346

KDM1B (UniProt Q8NB78)
inactive: [1] 0.093 | [6] -0.082 | [5] 0.168 | givinostat 0.081 | barasertib 0.049

KIAA0513 (UniProt O60268)
inactive: [1] 0.026 | [3] 0.033 | [6] 0.007 | vemurafenib 0.189 | [4] -0.068 | [5] -0.071 | givinostat 0.04 | barasertib 0.063

JTB (UniProt O76095)
inactive: [1] -0.063 | [3] -0.068 | [6] 0.045 | Nexturastat A 0.034 | vemurafenib -0.016 | [4] -0.063 | [5] -0.048 | givinostat 0.026 | barasertib 0.011

KBTBD7 (UniProt Q8WVZ9)
inactive: [1] -0.122 | givinostat 0.057

JPT2 isoform 2 (UniProt Q9H910)
inactive: [1] -0.018 | [3] 0.049 | [6] -0.009 | vemurafenib -0.001 | [4] -0.142 | [5] -0.002 | givinostat 0.027 | barasertib 0.008

KMT2A isoform 3 (UniProt Q03164)
inactive: [1] 0.14 | [2] -0.039 | givinostat 0.114

KIF20B isoform 2 (UniProt Q96Q89)
inactive: [2] 0.111

KMT2C isoform 3 (UniProt Q8NEZ4)
inactive: [1] -0.053 | [2] -0.07 | Nexturastat A -0.046 | vemurafenib -0.103 | [5] -0.033 | givinostat 0.011 | barasertib -0.003

KIF16B isoform 2 (UniProt Q96L93)
inactive: [2] -0.019

KIF13B (UniProt Q9NQT8)
inactive: [1] -0.046 | [3] 0.12 | [6] -0.041 | Nexturastat A 0.098 | [4] -0.056 | [5] 0.035 | givinostat -0.048 | barasertib 0.033

— the supplement of paper PMC10849652
